From publication PMC9118164 come the findings set out here.

Results are given in words; binding and its absence hold for the method and conditions named. In cells and extracts the contact can be indirect. Some entries that bind do so weakly or less than the wild type. Sequences can lack the tags named with a protein.

In the assay the target is T1, Chl1-Flag (Schizosaccharomyces pombe) (UniProt O14147).
T1 sequence: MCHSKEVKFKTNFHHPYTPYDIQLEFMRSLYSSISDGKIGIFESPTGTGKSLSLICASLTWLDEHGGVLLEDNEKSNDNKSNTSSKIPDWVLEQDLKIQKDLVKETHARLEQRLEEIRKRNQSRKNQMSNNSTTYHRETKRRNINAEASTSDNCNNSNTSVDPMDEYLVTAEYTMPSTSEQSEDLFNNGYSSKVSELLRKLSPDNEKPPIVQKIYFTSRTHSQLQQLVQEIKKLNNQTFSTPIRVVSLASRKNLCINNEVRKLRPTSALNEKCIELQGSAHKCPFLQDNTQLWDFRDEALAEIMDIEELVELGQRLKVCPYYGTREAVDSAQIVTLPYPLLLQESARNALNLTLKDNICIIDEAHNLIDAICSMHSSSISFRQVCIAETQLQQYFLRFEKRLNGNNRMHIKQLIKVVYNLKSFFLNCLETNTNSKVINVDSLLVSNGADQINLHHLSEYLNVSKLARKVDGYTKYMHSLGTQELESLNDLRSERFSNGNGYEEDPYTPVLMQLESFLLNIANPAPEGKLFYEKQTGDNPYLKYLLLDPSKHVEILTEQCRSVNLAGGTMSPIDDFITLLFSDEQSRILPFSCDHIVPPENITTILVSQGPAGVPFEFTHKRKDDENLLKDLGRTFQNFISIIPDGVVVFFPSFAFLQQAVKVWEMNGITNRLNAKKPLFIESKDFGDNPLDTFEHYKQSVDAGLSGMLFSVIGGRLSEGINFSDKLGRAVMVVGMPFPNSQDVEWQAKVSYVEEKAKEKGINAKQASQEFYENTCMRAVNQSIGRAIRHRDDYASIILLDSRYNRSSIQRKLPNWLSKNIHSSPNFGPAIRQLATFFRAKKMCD
Put plainly: co-IP; lysates of S. pombe strains coexpressing Chl1-Flag and Ssb1-Myc or Ssb2-Myc from native loci; immunoprecipitated with anti-Flag resin, western blot with anti-myc antibody. A general note: In western blotting, separated proteins are transferred to a membrane and probed.

B1: Ssb2-Myc (protein, UniProt Q92373 1-279)
chain: MAYDAFGKPGYGPDFNSAFSPGMGGGAGFNEYDQSSQPSVDRQQGAGNKLRPVTIKQILNASQVHADAEFKIDGVEVGQVTFVGVLRNIHAQTTNTTYQIEDGTGMIEVRHWEHIDALSELATDTYVRVYGNIKIFSGKIYIASQYIRTIKDHNEVHFHFLEAIAVHLHFTQKANAVNGANAPGYGTSNALGYNNISSNGAANSLEQKLAEYSLTPAQMTVMQAIHSAPETNEGVHVRQLAQSVGPGIDLTAVTDFLQQEGIIYTTIDENHFKSVLQDQ
Regarding B1, the binding result is “binds”.

B2: Ssb1-Myc (protein, UniProt Q92372 1-609)
chain: MAERLSVGALRIINTSDASSFPPNPILQVLTVKELNSNPTSGAPKRYRVVLSDSINYAQSMLSTQLNHLVAENKLQKGAFVQLTQFTVNVMKERKILIVLGLNVLTELGVMDKIGNPAGLETVDALRQQQNEQNNASAPRTGISTSTNSFYGNNAAATAPAPPPMMKKPAAPNSLSTIIYPIEGLSPYQNKWTIRARVTNKSEVKHWHNQRGEGKLFSVNLLDESGEIRATGFNDQVDAFYDILQEGSVYYISRCRVNIAKKQYTNVQNEYELMFERDTEIRKAEDQTAVPVAKFSFVSLQEVGDVAKDAVIDVIGVLQNVGPVQQITSRATSRGFDKRDITIVDQTGYEMRVTLWGKTAIEFSVSEESILAFKGVKVNDFQGRSLSMLTSSTMSVDPDIQESHLLKGWYDGQGRGQEFAKHSVISSTLSTTGRSAERKNIAEVQAEHLGMSETPDYFSLKGTIVYIRKKNVSYPACPAADCNKKVFDQGGSWRCEKCNKEYDAPQYRYIITIAVGDHTGQLWLNVFDDVGKLIMHKTADELNDLQENDENAFMNCMAEACYMPYIFQCRAKQDNFKGEMRVRYTVMSINQMDWKEESKRLINFIESAQ
In the case of B2, the binding result is on record as “binds”.
